Where a name gives a salt, the structure may show the parent alone. Some of these results come from one statement about several compounds together.
Key:
[1] = tested on: diamondback moth (Plutella xylostella); experiment: Test A: control of diamondback moth, foliar spray on pre-infested radish plant; type: in vivo; conditions: sprayed at 250 ppm, 6 days at 25° C., very good to excellent control
[2] = tested on: fall armyworm (Spodoptera frugiperda); experiment: Test B: control of fall armyworm, foliar spray on pre-infested maize plant; type: in vivo; conditions: sprayed at 250 ppm, very good to excellent control

Row | Compound | control efficacy: feeding damage (40% or less feeding damage and/or 100% mortality) [1] [%] | control efficacy: feeding damage (40% or less feeding damage and/or 100% mortality) [2] [%]
1 | O=c1c(-c2ccncc2Cl)c([O-])[n+](CC(F)(F)F)c2ccccn12 [Compound 121] | ≤ 40 | –
2 | O=c1c(-c2cc(-c3ccc(F)nc3)cc(C(F)(F)F)c2)c([O-])[n+](Cc2ccc(-c3ccc(F)nc3)nc2)c2ccccn12 [Compound 532] | ≤ 40 | –
3 | O=c1c(-c2cncc(-c3ccc(Cl)nc3)c2)c([O-])[n+](Cc2cnc(Cl)s2)c2ccccn12 [Compound 548] | ≤ 40 | –
4 | CC(C)CC(c1ccc(Cl)nc1)[n+]1c([O-])c(-c2cccc(OC(F)(F)F)c2)c(=O)n2ccccc21 (centres unmarked) [Compound 603] | ≤ 40 | –
5 | COc1cccc(-c2ncc(C[n+]3c([O-])c(I)c(=O)n4ccccc43)s2)c1 [Compound 613, 2-hydroxy-3-iodo-1-[[2-(3-methoxyphenyl)-5-thiazolyl]methyl]-4-oxo-4H-pyrido[1,2-a]-pyrimidinium inner salt] | ≤ 40 | –
6 | O=c1c(-c2cc(-c3ccc(-c4ccc(Cl)nc4)nc3)cc(C(F)(F)F)c2)c([O-])[n+](Cc2cnc(Cl)s2)c2ccccn12 [Compound 732] | ≤ 40 | –
7 | O=c1c(-c2cc(OC(F)(F)F)cc(-c3ccc(-c4ccc(Cl)nc4)nc3)c2)c([O-])[n+](Cc2cnc(Cl)s2)c2ccccn12 [Compound 733] | ≤ 40 | ≤ 40
